Measured values: PubChem BioAssay AID504327 (National Center for Advancing Translational Sciences (NCATS), 2011)
Out of some 390,000 compounds screened, about 820 (0.21%) were called active. The shares of active, inactive and inconclusive entries below differ from those in the screen. The call rests on the fitted dose curve; in most records, active means well fitted inhibition curve with a large enough effect; inconclusive means small, poorly fitted or top-dose-only effect, or another doubt; inactive means no such curve, though single readings can be large or run the other way. Potencies of inconclusive entries are doubtful fits and often do not repeat.

Amino acid sequences for entries named in this document (tags omitted).
UniProt Q92830, whole entry, looked up: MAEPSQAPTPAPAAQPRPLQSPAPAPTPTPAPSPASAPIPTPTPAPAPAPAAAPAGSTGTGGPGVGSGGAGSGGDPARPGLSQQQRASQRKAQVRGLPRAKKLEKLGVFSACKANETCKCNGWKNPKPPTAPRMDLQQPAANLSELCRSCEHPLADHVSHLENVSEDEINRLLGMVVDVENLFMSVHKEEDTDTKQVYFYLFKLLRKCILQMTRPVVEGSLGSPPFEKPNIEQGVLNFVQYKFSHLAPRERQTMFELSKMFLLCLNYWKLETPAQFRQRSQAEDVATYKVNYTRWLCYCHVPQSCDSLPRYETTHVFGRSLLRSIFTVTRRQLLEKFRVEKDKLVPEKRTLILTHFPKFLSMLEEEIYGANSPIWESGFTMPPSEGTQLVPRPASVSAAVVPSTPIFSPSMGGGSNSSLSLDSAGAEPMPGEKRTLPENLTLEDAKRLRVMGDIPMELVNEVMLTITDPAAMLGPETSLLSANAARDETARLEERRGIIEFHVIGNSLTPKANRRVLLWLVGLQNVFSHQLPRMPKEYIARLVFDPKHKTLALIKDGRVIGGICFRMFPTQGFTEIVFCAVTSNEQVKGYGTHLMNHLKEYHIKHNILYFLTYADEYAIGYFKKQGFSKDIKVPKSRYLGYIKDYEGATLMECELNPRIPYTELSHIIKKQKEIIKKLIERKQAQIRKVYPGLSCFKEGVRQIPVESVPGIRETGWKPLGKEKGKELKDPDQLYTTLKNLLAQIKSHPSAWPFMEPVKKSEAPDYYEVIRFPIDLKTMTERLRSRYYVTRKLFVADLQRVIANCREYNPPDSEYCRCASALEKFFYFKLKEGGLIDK

These molecules were tested against Histone acetyltransferase KAT2A (Homo sapiens) (UniProt Q92830) (assay: qHTS Assay for Inhibitors of GCN5L2). Conditions: GCN5L2 HAT assay, ThioGlo1 CoA-SH fluorescence; activity change, negative = inhibition: at 58.9 µM (top of the series) unless noted.
How it was run: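 Titration-based screen in which CoA formation is detected via maleimide probe ThioGlo1 (50uM) turning fluorescent on thiol reaction; substrates H3(1-25) 75uM and acetyl-CoA 70uM, GCN5L2 20nM, 20 min incubation at room temperature.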
On the % scale 0 is the no-effect control and ±100 the full control effect; potency means the concentration at half of the fitted maximal effect.

SMILES | Potency | activity change, negative = inhibition
CCC(C(=O)n1cccc1C#N)c1ccccc1C (stereo not drawn) | inconclusive: 39.8 µM [inhibitor, single point] | 
Cc1ccc(-n2nc3c(c2NC(=O)c2ccc4c(c2)OCO4)CS(=O)(=O)C3)cc1C |  | inactive: -8.31%
COC(=O)c1c(-c2cccc(C)c2)csc1NC(=O)C1CCCO1 (stereo not drawn) |  | inactive: 2.11%
CCN1CCN(c2oc(-c3ccco3)nc2C#N)CC1 | inconclusive: 2.51 µM [inhibitor, single point] | 
Cc1ccc(C2CC(c3ccc(NS(C)(=O)=O)cc3)=NN2C(=O)c2ccco2)cc1 (stereo not drawn) |  | inactive: -4.94%
C=C(C)C(=O)N1CC2(CC(c3cccc(NC(=O)COc4ccc(Cl)cc4)c3)=NO2)C[C@@H]1C(N)=O (stereo partly drawn) |  | inactive: -17.9%
O=S(=O)(c1ccc(S(=O)(=O)N2CCN(Cc3ccccc3)CC2)cc1)N1CCOCC1 |  | inactive: -0.995%
C[C@H]1C(c2cccc(Cl)c2)=NN(c2ccccc2)[C@@H]1CO | inconclusive: 12.6 µM [inhibitor, single point] | 
CCOC(=O)CSc1nc(N2CCOCC2)c2c(c1C#N)CC(C)(C)OC2 | inconclusive: 20 µM [inhibitor, partial curve] | 
C/C(=N/NC(=O)CNC(=O)/C=C/c1ccco1)c1ccc(Cl)cc1 |  | inactive: -13.6%
Cc1oc2ccc(O)c(CN(C)Cc3ccccc3)c2c1C(=O)Nc1cccc(C(F)(F)F)c1 | inconclusive: 15.8 µM [inhibitor, partial curve] | 
C(=N\C(/N=C/c1ccco1)c1ccco1)/c1ccco1 |  | inactive: -0.832%
Cc1nc2sccn2c(=O)c1S(=O)(=O)NCC(C)c1ccccc1 (stereo not drawn) | inconclusive: 39.8 µM [inhibitor, single point] | 
COc1cccc(/C=N/NC(=O)c2ccc(OCc3cccc(Br)c3)cc2)c1 | inconclusive: 0.631 µM [inhibitor, single point] | 
O=C1C(NS(=O)(=O)c2cccs2)=C(N2CCN(c3ccccc3)CC2)C(=O)c2ccccc21 |  | inactive: -6.87%
O=C(NCc1ccccc1)c1ccc(CN(c2ccccn2)S(=O)(=O)c2ccccc2)cc1 | inconclusive: 0.708 µM [inhibitor, single point] | 
O=C(O)Cc1ccc(NC(=O)c2ccc3c(c2)C(=O)N(Cc2ccco2)C3=O)cc1 | inconclusive: 11.2 µM [inhibitor, partial curve, poor fit] | 
Cc1c2cnn(CC(=O)NCc3ccccn3)c(=O)c2c(C)n1Cc1ccccc1 | inconclusive: 11.2 µM [inhibitor, partial curve] | 
CC1(C)Cc2c(C#N)c(N3CCOCC3)nc(-c3ccccc3)c2CO1 |  | inactive: -6.35%
O=c1c(S(=O)(=O)c2ccccc2)cn(Cc2ccccc2)c2cc(N3CCOCC3)c(F)cc12 |  | inactive: -11.1%
COC(=O)c1ccc(CSc2nnc(Nc3ccc(C)cc3)s2)o1 | inconclusive: 4.47 µM [inhibitor, partial curve] | 
CCc1ccccc1NC(=O)Nc1cccn(Cc2ccccc2F)c1=O |  | inactive: -4.04%

SMILES | Potency | activity change, negative = inhibition
CCN1C(=O)[C@H]2[C@@H](c3ccc(-c4ccc(F)cc4)c(OC)c3)N[C@@](C)(C(=O)OC)[C@H]2C1=O |  | inactive: -25.2%
Cc1ccc(C)c(N(C(=O)c2csnn2)C(C(=O)NC2CCCCC2)c2cccnc2)c1 (stereo not drawn) |  | inactive: -1.69%
Cc1ccc(S(=O)(=O)N2[C@@H](c3ccc(Br)cc3)C(C(=O)O)=CC[C@H]2c2cccc(Cl)c2)cc1 | inconclusive: 28.2 µM [inhibitor, single point] | 
NC(N)=N/N=C/c1ccc(OCc2ccc(Cl)cc2Cl)cc1 | inconclusive: 39.8 µM [inhibitor, single point] | 
CC(C)Oc1cccc(-c2cc(C(=O)N3CCN(c4ncccn4)CC3)c3ccccc3n2)c1 |  | inconclusive: -39.9% [inhibitor]
Cn1cc(CN2CC3C[C@@H]4CC2C[C@H](C3)C4)c(-c2ccc3c(c2)OCCO3)n1 | inconclusive: 35.5 µM [inhibitor, single point] | 
COC(=O)C1=C(C)N(Cc2ccccc2)C(=NCc2cccc(C(F)(F)F)c2)N[C@H]1c1cccc(F)c1 | inconclusive: 12.6 µM [inhibitor, partial curve] | 
CC(=O)c1ccc(C(=O)N2CCc3c([nH]c4ccccc34)C2c2ccccn2)s1 (stereo not drawn) | inconclusive: 0.126 µM [inhibitor, partial curve, poor fit] | 
CCOC(=O)c1c(C)nc2sc(C(=O)Nc3ccc(C(C)=O)cc3)c(N)c2c1-c1ccc(OC)cc1 |  | inactive: -5.73%
CCOc1ccccc1NC(=O)Cn1c(=O)n(Cc2ccccc2)c(=O)c2c(C)c(C)sc21 |  | inactive: -3.34%
CC(C)OCCCn1c(=S)[nH]c2ccc(N3CCOCC3)cc2c1=O | inconclusive: 10 µM [inhibitor, partial curve, poor fit] | 
CCN(c1ccc(OC)cc1)S(=O)(=O)c1nnc(NC(=O)COc2ccc(C)cc2)s1 | inconclusive: 11.2 µM [inhibitor, partial curve, poor fit] | 
Cc1ccc(CNC(=O)c2ccc(-n3cccc3)cc2)cc1 | inconclusive: 17.8 µM [inhibitor, partial curve] | 
Cc1ccc(-c2noc(CN(C(=O)C(c3ccccc3)c3ccccc3)C(C)C)n2)cc1 |  | inactive: -7.89%
Cc1ccc(C(=O)N2CCN(c3nc4ccccc4n3C)CC2)cc1 | inconclusive: 0.562 µM [inhibitor, full curve, poor fit] | 
COc1cc(C(=O)N(C)C2CCCCC2)ccc1OC1CCN(C(C)=O)CC1 | inconclusive: 3.98 µM [inhibitor, partial curve] | 
COc1ccc2c(c1)CC(C(=O)NCCCN1CCN(c3ccc(F)cc3)CC1)CO2 (stereo not drawn) |  | inactive: 1.64%
COc1ccc(NS(=O)(=O)c2cc(NC(=O)c3cc(F)c(F)c(F)c3F)ccc2N2CCCC2)cc1 | inconclusive: 8.91 µM [inhibitor, full curve, poor fit] | 
c1ccc(Cn2c(-c3cccs3)nc3nc4ccccc4nc32)cc1 | inconclusive: 22.4 µM [inhibitor, partial curve] | 
CCC(=O)N1CCc2cc(Br)cc(S(=O)(=O)N3CCCC(C(=O)N(C)c4ccc(Br)cc4)C3)c21 (stereo not drawn) |  | inactive: -1.84%
O=C(Cc1ccc(F)cc1)NCCS(=O)(=O)N1CCN(c2cccc(Cl)c2)CC1 | inconclusive: 31.6 µM [inhibitor, single point] | 

3 entries already listed, arranged by length of the SMILES, rising.
SMILES | Potency | activity change, negative = inhibition
c1ccc(Cn2c(-c3cccs3)nc3nc4ccccc4nc32)cc1 | inconclusive: 22.4 µM [inhibitor, partial curve] | 
O=C(NCc1ccccc1)c1ccc(CN(c2ccccn2)S(=O)(=O)c2ccccc2)cc1 | inconclusive: 0.708 µM [inhibitor, single point] | 
CCOc1ccccc1NC(=O)Cn1c(=O)n(Cc2ccccc2)c(=O)c2c(C)c(C)sc21 |  | inactive: -3.34%
